The record followed here is patent US8158806B2, “DAT1” (Department of Biotechnology, priority 2004, dated 2012).

As a reminder, the pIC50 is −log10 of the IC50, conventionally taken in molar units.

In assay [1] the test system is SiHa. Nature of the assay: MTT cell viability assay, SiHa. The class given is cell-based. The note with it: Homo sapiens, 48 h, read-out: IC50 values (growth inhibition constants). Here is the method: (§1) The compound DAT1 was tested for its cytotoxicity on human cervical, uterus and colon cancer cell lines and mouse fibrocercoma cells. Cell lines were obtained from ATCC, USA and NCCS, Pune, India. MTT assay, which correlates a fomazan dye formation wife the number of viable cells, was used for this purpose.
(§2) • 3. Cell Viability Assay: MTT assay was used to determine fee number of viable cells upon drug addition. Cells were seeded in microtitre plates (generally 5×10^3 cells per well) and were incubated with different concentrations of the cytotoxic agents for 48 h. Subsequently, 100 μl of MTT solution (0.6 mg/ml) was added per well and incubated at 37° C. for additional 2 h. The amount of formazan salt was quantified in quadruplicates by recording fee absorbance at 570 ran using a Biorad Plate reader. The growth inhibition constants (IC50) were calculated from the semi logarithmic dose response plots using fee nonlinear regression program Origin. […] Polymerization assay: MTP polymerization, in fee presence or absence of DAT1, was measured by the time course of fee turbidity at 37° at 345 nm. […] Tubulin binding: Emission spectra of DAT1 in presence of tubulin were recorded from 400 nm to 600 nm using an excitation wavelength of 374 nm. Excitation and emission bandpasses are 2.5 nm each and the fluorescence values recorded are uncorrected. […]
For orientation: Tetrazolium assays rely on reduction of a dye to a coloured formazan, in cell work by metabolically active cells.

The test system of assay [2] is CaSki. Nature of the assay: MTT cell viability assay, CaSki. It counts as cell-based. The note with it: Homo sapiens, Ca-Ski, 48 h, read-out: IC50 values (growth inhibition constants). How it is done: as §1, §2

pIC50: −log10 of the molar value.

Turning to `COc1cc2c(c(OC)c1OC)-c1ccc(OC)c(=O)cc1[C@@H](NC(C)=O)CC2` [Colchicine], the results for the pIC50 in assay [1] and in assay [2] were 5.60 and 6.60, respectively.
